According to the supplement of paper PMC12819154, “High-throughput peptide-centric local stability assay extends protein–ligand identification to membrane proteins, tissues and bacteria” (Nature Structural & Molecular Biology, 2025):
The list shows a part of the results. Small differences around the control level are noise.

Chains of the proteins cited; added tags and fusions are not shown. Lines headed by an entry give the natural chain unless they say otherwise; changes in a name come on top.
UniProt Q566J8: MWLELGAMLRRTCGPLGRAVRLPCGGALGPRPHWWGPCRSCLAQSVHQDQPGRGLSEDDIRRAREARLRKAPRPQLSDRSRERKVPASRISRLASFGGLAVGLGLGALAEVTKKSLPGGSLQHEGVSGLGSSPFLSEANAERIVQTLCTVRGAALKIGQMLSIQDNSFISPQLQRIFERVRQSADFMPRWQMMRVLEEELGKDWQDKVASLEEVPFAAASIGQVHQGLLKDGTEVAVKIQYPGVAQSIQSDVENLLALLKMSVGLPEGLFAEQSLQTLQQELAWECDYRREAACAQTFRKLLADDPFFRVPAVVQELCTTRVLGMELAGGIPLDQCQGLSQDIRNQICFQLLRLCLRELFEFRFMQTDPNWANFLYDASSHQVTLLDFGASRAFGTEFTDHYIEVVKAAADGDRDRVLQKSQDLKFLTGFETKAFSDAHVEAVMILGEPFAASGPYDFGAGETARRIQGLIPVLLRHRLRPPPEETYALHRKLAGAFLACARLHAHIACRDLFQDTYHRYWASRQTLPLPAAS
UniProt Q3UIR3: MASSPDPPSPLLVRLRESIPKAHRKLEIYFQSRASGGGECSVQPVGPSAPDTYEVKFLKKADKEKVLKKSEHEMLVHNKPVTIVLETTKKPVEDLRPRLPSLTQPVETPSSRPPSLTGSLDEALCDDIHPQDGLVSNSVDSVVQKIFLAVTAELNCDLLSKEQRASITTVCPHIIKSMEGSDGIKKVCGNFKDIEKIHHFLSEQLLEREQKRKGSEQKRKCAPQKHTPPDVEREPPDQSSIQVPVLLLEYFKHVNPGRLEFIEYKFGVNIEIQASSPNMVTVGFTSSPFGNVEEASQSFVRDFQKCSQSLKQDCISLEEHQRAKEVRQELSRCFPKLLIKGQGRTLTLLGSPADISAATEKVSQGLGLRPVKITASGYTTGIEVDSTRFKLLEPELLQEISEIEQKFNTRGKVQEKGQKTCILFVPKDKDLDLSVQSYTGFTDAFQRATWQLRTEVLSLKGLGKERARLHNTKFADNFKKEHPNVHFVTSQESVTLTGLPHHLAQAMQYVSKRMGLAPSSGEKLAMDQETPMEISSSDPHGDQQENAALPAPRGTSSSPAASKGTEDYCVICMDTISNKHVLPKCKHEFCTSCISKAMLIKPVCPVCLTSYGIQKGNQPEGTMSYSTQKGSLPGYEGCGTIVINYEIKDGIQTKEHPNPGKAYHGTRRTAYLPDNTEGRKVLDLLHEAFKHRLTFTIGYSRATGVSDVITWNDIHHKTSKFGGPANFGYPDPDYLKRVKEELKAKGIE
UniProt Q5D1E7: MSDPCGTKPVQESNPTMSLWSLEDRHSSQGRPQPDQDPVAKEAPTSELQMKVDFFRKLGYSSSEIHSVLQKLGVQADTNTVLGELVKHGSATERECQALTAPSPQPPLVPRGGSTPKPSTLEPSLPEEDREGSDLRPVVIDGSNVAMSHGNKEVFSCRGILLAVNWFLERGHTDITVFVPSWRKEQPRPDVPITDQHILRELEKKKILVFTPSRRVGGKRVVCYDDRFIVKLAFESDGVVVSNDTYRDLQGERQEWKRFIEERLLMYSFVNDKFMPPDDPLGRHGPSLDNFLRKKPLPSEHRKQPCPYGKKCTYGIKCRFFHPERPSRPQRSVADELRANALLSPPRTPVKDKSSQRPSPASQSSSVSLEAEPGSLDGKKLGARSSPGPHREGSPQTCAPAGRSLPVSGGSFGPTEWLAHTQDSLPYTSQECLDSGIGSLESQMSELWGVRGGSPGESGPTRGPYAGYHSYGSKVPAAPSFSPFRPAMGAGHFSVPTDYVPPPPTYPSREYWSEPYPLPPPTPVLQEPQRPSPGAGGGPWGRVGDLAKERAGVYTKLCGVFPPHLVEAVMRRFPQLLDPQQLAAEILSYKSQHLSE
UniProt Q3UTQ7: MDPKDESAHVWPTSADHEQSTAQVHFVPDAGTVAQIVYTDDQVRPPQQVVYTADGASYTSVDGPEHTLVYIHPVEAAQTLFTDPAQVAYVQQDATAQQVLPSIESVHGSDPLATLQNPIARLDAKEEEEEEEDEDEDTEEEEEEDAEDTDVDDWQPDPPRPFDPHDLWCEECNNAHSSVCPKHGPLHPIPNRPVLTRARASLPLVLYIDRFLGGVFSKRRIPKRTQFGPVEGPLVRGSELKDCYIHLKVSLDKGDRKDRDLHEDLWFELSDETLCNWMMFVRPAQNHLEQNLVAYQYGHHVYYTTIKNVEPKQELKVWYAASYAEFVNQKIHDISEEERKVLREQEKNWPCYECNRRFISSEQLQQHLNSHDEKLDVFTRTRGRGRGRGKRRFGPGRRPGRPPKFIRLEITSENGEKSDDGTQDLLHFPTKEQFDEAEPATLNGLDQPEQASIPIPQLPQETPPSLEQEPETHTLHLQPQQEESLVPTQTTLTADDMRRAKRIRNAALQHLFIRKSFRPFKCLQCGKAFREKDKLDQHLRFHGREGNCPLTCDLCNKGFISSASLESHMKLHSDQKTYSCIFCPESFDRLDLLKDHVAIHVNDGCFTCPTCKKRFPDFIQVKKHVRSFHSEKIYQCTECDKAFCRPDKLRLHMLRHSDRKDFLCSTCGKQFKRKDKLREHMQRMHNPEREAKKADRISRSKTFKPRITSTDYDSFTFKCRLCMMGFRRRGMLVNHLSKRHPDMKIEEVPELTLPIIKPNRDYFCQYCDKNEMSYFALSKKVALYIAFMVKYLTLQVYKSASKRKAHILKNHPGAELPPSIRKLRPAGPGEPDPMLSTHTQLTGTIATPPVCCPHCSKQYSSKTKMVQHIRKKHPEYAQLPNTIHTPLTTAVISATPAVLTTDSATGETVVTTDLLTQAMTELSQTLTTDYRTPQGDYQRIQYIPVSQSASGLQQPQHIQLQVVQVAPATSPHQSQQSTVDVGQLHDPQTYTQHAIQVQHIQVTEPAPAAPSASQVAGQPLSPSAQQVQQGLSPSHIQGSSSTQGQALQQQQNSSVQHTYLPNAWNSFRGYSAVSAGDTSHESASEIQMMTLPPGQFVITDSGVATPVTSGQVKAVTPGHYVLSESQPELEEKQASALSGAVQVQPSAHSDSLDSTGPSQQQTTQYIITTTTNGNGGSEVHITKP
UniProt Q3UB74: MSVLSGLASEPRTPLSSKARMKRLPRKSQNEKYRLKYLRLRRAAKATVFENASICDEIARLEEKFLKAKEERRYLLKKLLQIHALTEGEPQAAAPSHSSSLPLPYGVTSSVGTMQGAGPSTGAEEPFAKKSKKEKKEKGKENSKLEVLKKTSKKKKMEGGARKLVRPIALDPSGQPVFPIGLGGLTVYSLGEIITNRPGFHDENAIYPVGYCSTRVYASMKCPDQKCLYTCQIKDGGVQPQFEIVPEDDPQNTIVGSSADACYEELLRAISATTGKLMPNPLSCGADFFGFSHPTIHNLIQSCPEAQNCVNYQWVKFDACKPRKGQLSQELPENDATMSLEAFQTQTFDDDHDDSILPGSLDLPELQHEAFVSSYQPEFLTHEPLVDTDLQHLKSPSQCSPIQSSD
UniProt Q3UL36: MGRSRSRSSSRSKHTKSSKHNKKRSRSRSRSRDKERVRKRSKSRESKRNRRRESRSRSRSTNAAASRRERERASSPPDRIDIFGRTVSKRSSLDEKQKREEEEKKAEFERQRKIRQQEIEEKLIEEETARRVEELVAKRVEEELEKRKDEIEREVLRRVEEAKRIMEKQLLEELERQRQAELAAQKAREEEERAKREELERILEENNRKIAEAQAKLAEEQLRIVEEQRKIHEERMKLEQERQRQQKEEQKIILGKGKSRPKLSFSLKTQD
UniProt Q5DTU0: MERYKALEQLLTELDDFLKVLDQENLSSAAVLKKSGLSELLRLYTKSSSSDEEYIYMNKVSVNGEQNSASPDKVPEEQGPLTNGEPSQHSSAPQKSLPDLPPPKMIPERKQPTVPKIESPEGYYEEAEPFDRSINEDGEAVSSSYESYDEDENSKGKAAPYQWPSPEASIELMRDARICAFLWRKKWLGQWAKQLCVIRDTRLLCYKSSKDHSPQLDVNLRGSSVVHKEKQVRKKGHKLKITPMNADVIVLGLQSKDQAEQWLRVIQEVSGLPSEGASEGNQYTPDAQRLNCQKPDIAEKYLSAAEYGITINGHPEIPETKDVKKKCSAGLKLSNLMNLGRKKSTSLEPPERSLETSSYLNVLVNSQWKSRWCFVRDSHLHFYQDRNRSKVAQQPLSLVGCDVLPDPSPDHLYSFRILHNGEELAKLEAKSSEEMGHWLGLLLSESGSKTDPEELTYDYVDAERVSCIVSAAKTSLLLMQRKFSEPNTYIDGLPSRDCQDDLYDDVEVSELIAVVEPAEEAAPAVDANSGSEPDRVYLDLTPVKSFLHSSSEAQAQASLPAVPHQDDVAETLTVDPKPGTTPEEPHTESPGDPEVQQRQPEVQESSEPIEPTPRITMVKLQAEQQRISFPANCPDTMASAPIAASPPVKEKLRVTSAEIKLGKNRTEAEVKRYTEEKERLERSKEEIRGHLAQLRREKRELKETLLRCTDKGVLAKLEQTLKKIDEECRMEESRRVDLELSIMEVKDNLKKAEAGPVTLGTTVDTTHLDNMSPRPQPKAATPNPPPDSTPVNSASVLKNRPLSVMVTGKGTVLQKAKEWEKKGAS
UniProt Q4QQM4: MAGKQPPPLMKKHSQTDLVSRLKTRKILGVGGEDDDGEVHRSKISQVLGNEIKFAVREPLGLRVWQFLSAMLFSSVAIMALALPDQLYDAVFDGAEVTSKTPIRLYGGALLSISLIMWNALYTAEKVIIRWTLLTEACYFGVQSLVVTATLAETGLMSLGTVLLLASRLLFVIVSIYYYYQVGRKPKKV
UniProt Q571G4: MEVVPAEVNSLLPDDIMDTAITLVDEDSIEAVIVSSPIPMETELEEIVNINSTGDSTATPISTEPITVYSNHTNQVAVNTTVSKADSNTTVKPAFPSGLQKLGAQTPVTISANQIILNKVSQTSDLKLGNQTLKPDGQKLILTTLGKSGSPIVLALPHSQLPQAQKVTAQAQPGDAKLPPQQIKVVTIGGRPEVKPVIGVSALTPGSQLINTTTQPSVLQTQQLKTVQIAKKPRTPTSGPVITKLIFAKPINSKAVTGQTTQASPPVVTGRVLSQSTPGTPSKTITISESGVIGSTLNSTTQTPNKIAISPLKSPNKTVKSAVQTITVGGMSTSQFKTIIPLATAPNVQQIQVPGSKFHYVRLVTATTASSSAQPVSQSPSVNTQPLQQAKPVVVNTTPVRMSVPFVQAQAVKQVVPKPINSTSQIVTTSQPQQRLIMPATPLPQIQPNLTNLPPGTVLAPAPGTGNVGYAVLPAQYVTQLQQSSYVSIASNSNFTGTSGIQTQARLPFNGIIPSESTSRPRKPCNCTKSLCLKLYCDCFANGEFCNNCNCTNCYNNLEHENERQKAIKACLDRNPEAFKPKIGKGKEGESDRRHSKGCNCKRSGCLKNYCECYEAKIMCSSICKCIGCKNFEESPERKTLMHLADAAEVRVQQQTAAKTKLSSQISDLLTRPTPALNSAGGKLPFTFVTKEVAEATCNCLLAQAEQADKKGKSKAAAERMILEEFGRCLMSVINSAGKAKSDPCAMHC
UniProt Q4VBF2: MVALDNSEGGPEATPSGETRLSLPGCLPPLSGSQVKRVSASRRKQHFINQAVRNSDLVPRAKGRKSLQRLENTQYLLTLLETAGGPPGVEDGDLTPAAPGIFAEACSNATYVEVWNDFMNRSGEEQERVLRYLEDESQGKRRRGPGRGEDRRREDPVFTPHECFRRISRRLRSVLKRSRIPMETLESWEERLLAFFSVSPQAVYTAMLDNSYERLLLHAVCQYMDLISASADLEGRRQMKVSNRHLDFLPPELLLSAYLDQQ
UniProt Q3UVL4: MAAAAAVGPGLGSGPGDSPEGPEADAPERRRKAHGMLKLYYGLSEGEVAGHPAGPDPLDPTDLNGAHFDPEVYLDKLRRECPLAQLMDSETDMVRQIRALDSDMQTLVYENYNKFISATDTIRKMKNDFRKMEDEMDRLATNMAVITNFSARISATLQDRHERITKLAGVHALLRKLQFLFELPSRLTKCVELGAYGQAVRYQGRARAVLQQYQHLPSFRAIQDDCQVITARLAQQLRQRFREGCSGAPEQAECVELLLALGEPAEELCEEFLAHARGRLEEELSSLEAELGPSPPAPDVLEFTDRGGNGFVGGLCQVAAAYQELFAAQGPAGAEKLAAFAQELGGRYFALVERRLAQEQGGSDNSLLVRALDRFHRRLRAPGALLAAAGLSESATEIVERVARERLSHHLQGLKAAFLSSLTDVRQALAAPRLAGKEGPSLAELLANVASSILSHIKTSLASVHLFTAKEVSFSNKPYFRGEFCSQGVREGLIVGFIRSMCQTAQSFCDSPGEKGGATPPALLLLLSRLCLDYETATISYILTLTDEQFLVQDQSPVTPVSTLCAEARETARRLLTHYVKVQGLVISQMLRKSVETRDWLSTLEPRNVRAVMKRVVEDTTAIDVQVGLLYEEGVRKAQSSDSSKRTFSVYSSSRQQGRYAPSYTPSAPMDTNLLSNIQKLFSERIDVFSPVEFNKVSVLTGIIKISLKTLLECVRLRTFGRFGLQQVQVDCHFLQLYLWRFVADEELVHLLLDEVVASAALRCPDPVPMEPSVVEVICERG

Compound: CN[C@@H]1C[C@H]2O[C@@](C)([C@@H]1OC)n1c3ccccc3c3c4c(c5c6ccccc6n2c5c31)C(=O)NC4 [staurosporine]
Assay: log2 fold change of tryptic peptide abundance, ligand vs vehicle (limited proteolysis) (log2 ratio); higher = more trypsin-susceptible (destabilized)
Conditions: ligand concentration: 20 uM; sample: mouse liver crude lysate; replicate design: treated separately

| Target | log2 fold change |
| --- | --- |
| UniProt Q5DTJ9 (peptide sequence: NEAGIVSCTAR, peptide start residue: 1337) | -0.258 |
| UniProt Q3UUG6 (peptide sequence: AGQPLESDNVK, peptide start residue: 256) | 0.152 |
| UniProt Q3UGS4 (peptide sequence: TFKPIDLSDLK, peptide start residue: 77) | 0.191 |
| UniProt Q3UFS0 (peptide sequence: VSGEANETQIAEALRR, peptide start residue: 318) | 0.222 |
| UniProt Q566J8 (peptide sequence: GLSEDDIR, peptide start residue: 54) | -0.234 |
| UniProt Q3UIR3 (peptide sequence: TCILFVPK, peptide start residue: 420) | -0.457 |
| UniProt Q5D1E7 (peptide sequence: KLGYSSSEIHSVLQK, peptide start residue: 57) | 0.408 |
| UniProt Q3UTQ7 (peptide sequence: GMLVNHLSK, peptide start residue: 730) | 0.134 |
| UniProt Q3UEN2 (peptide sequence: KLWSPGLSLRAEGTGGIPGK, peptide start residue: 871) | 0.288 |
| UniProt Q3UK78 (peptide sequence: NKPQENGQDDISKVDK, peptide start residue: 101) | 0.312 |
| UniProt Q4VBE8 (peptide sequence: DLFDFSTR, peptide start residue: 417) | -0.118 |
| UniProt Q3ULD5 (peptide sequence: ALVSQLHER, peptide start residue: 51) | 0.163 |
| UniProt Q3UVK0 (peptide sequence: EASAQEDAK, peptide start residue: 32) | -0.237 |
| UniProt Q3U9G9 (peptide sequence: YGLAWEK, peptide start residue: 606) | 0.292 |
| UniProt Q4KMM3 (peptide sequence: DSLNSIALK, peptide start residue: 106) | 0.18 |
| UniProt Q3UB74 (peptide sequence: FDACKPR, peptide start residue: 317) | -0.115 |
| UniProt Q3URV1 (peptide sequence: LILDQLDPGQPK, peptide start residue: 173) | -0.3 |
| UniProt Q3UL36 (peptide sequence: ILEENNR, peptide start residue: 202) | -0.144 |
| UniProt Q505F5 (peptide sequence: DVRPYIVGAIVR, peptide start residue: 330) | 0.14 |

Some of the entries so far, with bars between the fields:
Target | log2 fold change
UniProt Q3UTQ7 (peptide sequence: GMLVNHLSK, peptide start residue: 730) | 0.134
UniProt Q3UEN2 (peptide sequence: KLWSPGLSLRAEGTGGIPGK, peptide start residue: 871) | 0.288

(list continues)

| Target | log2 fold change |
| --- | --- |
| UniProt Q3UPR7 (peptide sequence: AKDFVFALLGLVHR, peptide start residue: 63) | -0.413 |
| UniProt Q3UM45 (peptide sequence: LTMLDIASNR, peptide start residue: 277) | -0.503 |
| UniProt Q3V0K9 (peptide sequence: AYFHLLNQIAPK, peptide start residue: 301) | -0.445 |
| UniProt Q3UY34 (peptide sequence: EAATPAWGLEQRPGAAERPEAGAADK, peptide start residue: 29) | -0.149 |
| UniProt Q3UXZ9 (peptide sequence: VTEALSASFNHKK, peptide start residue: 746) | -0.492 |
| UniProt Q3UQ84 (peptide sequence: FGLFEELWTAHVK, peptide start residue: 41) | 0.55 |
| UniProt Q5DTU0 (peptide sequence: YTEEKER, peptide start residue: 673) | -0.607 |
| UniProt Q3UW55 (peptide sequence: KKQMSSWI, peptide start residue: 129) | 0.152 |
| UniProt Q4QQM4 (peptide sequence: KHSQTDLVSR, peptide start residue: 12) | -0.401 |
| UniProt Q571G4 (peptide sequence: ADSNTTVKPAFPSGLQK, peptide start residue: 85) | 0.518 |
| UniProt Q5DTW7 (peptide sequence: SLCSGVGNSQK, peptide start residue: 506) | -0.442 |
| UniProt Q3V384 (peptide sequence: ALAVCHGPLDHYDFLIK, peptide start residue: 68) | 0.194 |
| UniProt Q4FZC9 (peptide sequence: IPEGQHLFENLLR, peptide start residue: 850) | 0.0396 |
| UniProt Q4VBF2 (peptide sequence: REDPVFTPHECFR, peptide start residue: 153) | 0.388 |
| UniProt Q3UTH8 (peptide sequence: KLEEKIR, peptide start residue: 409) | -0.118 |
| UniProt Q3UVL4 (peptide sequence: LSHHLQGLK, peptide start residue: 407) | -0.35 |
| UniProt Q570Y9 (peptide sequence: RPVTSEELLTPGAPYAR, peptide start residue: 312) | -0.237 |
| UniProt Q5DTY9 (peptide sequence: YILDYLR, peptide start residue: 91) | 0.115 |
